Screen size: about 320,000 compounds; about 22,000 (6.9%) were called active. Inconclusive means that the source gave no clear call. Such entries were picked first, then a sample of the others. Calls follow the shape of the dose curve; as a rule, active = well fitted inhibition curve with a large enough effect; inconclusive = small, poorly fitted or top-dose-only effect, or another doubt; inactive = no such curve, though single readings can be large or run the other way. A potency beside an inconclusive call is a rough fit, not a confirmed value.
Experiment: Primary qHTS for delayed death inhibitors of the malarial parasite plastid, 96 hour incubation
Conditions: P. falciparum luciferase reporter growth; series mostly up to 28.7 µM; activity change, negative = inhibition: at the top concentration
Method in brief: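 Two-generation exposure (96 h) targets delayed-death phenotype. Reporter parasites carrying integrated firefly luciferase, in red cells at 2% hematocrit and 0.05% parasitemia final, kept at 37 C, 5% CO2; luminescence loss indicates inhibition.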
% is scaled to controls: 0 for no effect and ±100 for the full control effect; potency is read from the fitted curve at half-maximal effect.

Row | Structure (SMILES) | Potency | activity change, negative = inhibition
1 | COc1ccc2[nH]cc(CCNC(=O)Cc3c(F)cccc3Cl)c2c1 | inconclusive: 18.5 µM [inhibitor, single point] | –
2 | COc1ccc(CNC(=S)Nc2cccc(OC)c2)cc1 | inconclusive: 5.86 µM [inhibitor, partial curve, poor fit] | –
3 | CN(CC(=O)Nc1ccc(Cl)c(C(F)(F)F)c1)C(=O)CCCNC(=O)c1ccc(Cl)cc1 | – | inactive: 42.6%
4 | CN(C)CCCNC1=CC(=O)OC12CCCCC2 | inconclusive: 1.85 µM [inhibitor, single point] | –
5 | COc1ccc(CCNC2CC(C)N(C)CC2C)cc1OC (centres undefined) | inconclusive: 2.08 µM [inhibitor, full curve, poor fit] | –
6 | Cc1ccsc1/C=N/Nc1nc(Cl)c(Cl)cc1Cl | – | inactive: 156%
7 | COc1ccccc1C/C(N)=N/OC(=O)COc1cccc(C)c1C | inconclusive: 0.415 µM [inhibitor, full curve, poor fit] | –
8 | Cc1ccccc1S(=O)(=O)Cc1ccc(C(=O)NCCCN2CCCC(C)C2)o1 (centres undefined) | active: 2.33 µM | –
9 | O=[N+]([O-])c1cc([N+](=O)[O-])c(Oc2c(F)cc(F)cc2F)cc1NN1CCCCC1 | inconclusive: 11.7 µM [inhibitor, single point] | –
10 | COC(=O)c1sc2ccccc2c1N | inconclusive: 5.22 µM [inhibitor, partial curve, poor fit] | –
11 | COc1ccc(C(=O)NC(=O)COC(=O)CCS(=O)(=O)c2ccc(C)cc2)cc1 | – | inactive: 34.7%
12 | CN(Cc1ccccc1)c1ccc(C(CC(N)=O)NC(=O)c2ccccc2)cc1[N+](=O)[O-] (centres undefined) | inconclusive: 18.5 µM [inhibitor, single point] | –
13 | CCN1C(=O)CC(C(=O)O)SC1=Nc1ccc(OC)cc1 (centres undefined) | inconclusive: 4.65 µM [inhibitor, partial curve] | –
14 | COc1cccc(CNC(=O)N2CCN(c3ccccc3)CC2)c1 | – | inactive: 24.4%
15 | COC(=O)c1ccc(N2CCOCC2)c(NC(=O)c2ccco2)c1 | inconclusive: 4.15 µM [inhibitor, single point] | –
16 | CCc1ccc(NC(=O)CSc2nc3n[nH]c(C)c3c(=N)n2-c2cccc(OC)c2)cc1 | inconclusive: 13.1 µM [inhibitor, partial curve] | –
17 | COc1ccc(Cc2nnc(Nc3ccc4c(c3)OCCO4)[nH]c2=O)cc1 | inconclusive: 18.5 µM [inhibitor, single point] | –
18 | Cc1nc2ccccn2c1P(=S)(N1CCCCC1)N1CCCCC1 | inconclusive: 18.5 µM [inhibitor, single point] | –
19 | Cc1ccc(NC(=O)CCn2nnc3ccccc32)cc1 | – | inactive: 14.1%
20 | CCc1ccc(Nc2cnn(-c3nc4ccccc4s3)c(=O)c2Cl)cc1 | inconclusive: 18.5 µM [inhibitor, single point] | –
21 | COc1ccc(C2CC(c3ccc4ccccc4c3)=NN2C(=O)CN2CCC(C(N)=O)CC2)cc1 (centres undefined) | inconclusive: 2.33 µM [inhibitor, single point] | –
22 | CCn1cc(C2=NCC(C)O2)c2ccccc21 (centres undefined) | inconclusive: 20.8 µM [inhibitor, partial curve, poor fit] | –
23 | O=Cc1c(NCc2ccc(Cl)cc2)c2ccccc2[nH]c1=O | inconclusive: 18.5 µM [inhibitor, single point] | –

Row | Structure (SMILES) | Potency | activity change, negative = inhibition
24 | CCOC(=O)CCCc1ccc(/C(C)=N/NC(N)=S)cc1 | inconclusive: 4.15 µM [inhibitor, single point] | –
25 | CCCCOC1CC(c2ccc(OCc3ccc(OC)cc3)c(OC)c2)N(C)O1 (centres undefined) | – | inactive: 0%
26 | c1ccc(CNc2nc(-c3cccnc3)nc3ccccc23)cc1 | active: 8.28 µM | –
27 | COC(=O)Cc1ccc(NC(=S)NCc2ccc(F)cc2)cc1 | inconclusive: 8.28 µM [inhibitor, partial curve, poor fit] | –
28 | Cc1ccc(S(=O)(=O)N2CCOCC2)cc1C(=O)N1CCN(S(=O)(=O)c2cccs2)CC1 | inconclusive: 20.8 µM [inhibitor, partial curve, poor fit] | –
29 | Cc1ccccc1OCC(O)CN(CCO)Cc1ccccc1 (centres undefined) | inconclusive: 0.0033 µM [inhibitor, full curve, poor fit] | –
30 | CC(C)(C)c1nc(CN2CCOCC2)cc(CN2CCOCC2)c1O | inconclusive: 0.0262 µM [inhibitor, full curve] | –
31 | O=C(Cc1ccccn1)c1ccc(Cl)cc1 | inconclusive: 18.5 µM [inhibitor, single point] | –
32 | CN(C)S(=O)(=O)c1cccc(NC(=O)COC(=O)/C=C/c2ccc(Br)o2)c1 | – | inactive: 33.2%
33 | CC(=O)Nc1ccc(S(=O)(=O)NC(=O)C23CC4CC(CC(C4)C2)C3)cc1 | active: 0.928 µM | –
34 | CC1CCCCC1NC(=O)CN1C(=O)CSc2cc(S(=O)(=O)N3CCCCCC3)ccc21 (centres undefined) | inconclusive: 5.22 µM [inhibitor, partial curve] | –
35 | Cc1ncc([N+](=O)[O-])n1Cc1cccc(F)c1 | inconclusive: 1.65 µM [inhibitor, full curve, poor fit] | –
36 | C#CCn1c(=NC(=O)c2cccs2)sc2cccc(OC)c21 | inconclusive: 18.5 µM [inhibitor, single point] | –
37 | CC(Oc1ccccc1)C(=O)NCc1cccnc1 (centres undefined) | inconclusive: 10.4 µM [inhibitor, partial curve, poor fit] | –
38 | Cc1cccc2cc3c(NC(=O)C(C)(C)C)nn(CC(C)C)c3nc12 | inconclusive: 14.7 µM [inhibitor, partial curve, poor fit] | –
39 | O=C(CCc1ccccc1Cl)Nc1ccc(S(=O)(=O)N2CCOCC2)cc1 | inconclusive: 4.65 µM [inhibitor, partial curve, poor fit] | –
40 | Cc1ccc(S(=O)(=O)C/N=C(/NC(=S)N(c2ccccc2)c2ccccc2)c2ccccc2)cc1 | inconclusive: 11.7 µM [inhibitor, partial curve, poor fit] | –
41 | Cc1cc2ccccc2c(=O)n1CC(=O)N(C)c1ccc(F)cc1 | active: 10.4 µM | –
42 | Cc1ccc(-c2c(C(=O)N/N=C/c3ccc(OC(C)C)cc3)nnn2-c2nonc2N)cc1 | inconclusive: 0.465 µM [inhibitor, full curve] | –
43 | Cc1ccc(S(=O)(=O)Nc2ccccc2/C=N/c2nc3ccccc3n2C(C)C)cc1 | inconclusive: 4.15 µM [inhibitor, partial curve, poor fit] | –
44 | Cn1cc(-c2ccccc2C(N)=O)c(=O)c2cc(Cl)ccc21 | inconclusive: 0.738 µM [inhibitor, full curve, poor fit] | –
45 | O=C(CN1C(=O)S/C(=C/c2cccs2)C1=O)N1CCOCC1 | inconclusive: 0.329 µM [inhibitor, full curve, poor fit] | –
46 | COc1ccc(-c2cc(C(=O)N3CCN(c4ccccc4OC)CC3)no2)cc1OC | inconclusive: 11.7 µM [inhibitor, partial curve, poor fit] | –

4 entries from above, sorted by number of heavy atoms, falling.
Row | Structure (SMILES) | Potency | activity change, negative = inhibition
21 | COc1ccc(C2CC(c3ccc4ccccc4c3)=NN2C(=O)CN2CCC(C(N)=O)CC2)cc1 (centres undefined) | inconclusive: 2.33 µM [inhibitor, single point] | –
3 | CN(CC(=O)Nc1ccc(Cl)c(C(F)(F)F)c1)C(=O)CCCNC(=O)c1ccc(Cl)cc1 | – | inactive: 42.6%
11 | COc1ccc(C(=O)NC(=O)COC(=O)CCS(=O)(=O)c2ccc(C)cc2)cc1 | – | inactive: 34.7%
37 | CC(Oc1ccccc1)C(=O)NCc1cccnc1 (centres undefined) | inconclusive: 10.4 µM [inhibitor, partial curve, poor fit] | –

Continued:

Row | Structure (SMILES) | Potency | activity change, negative = inhibition
47 | O=c1c(Cl)c(Cl)cnn1Cc1nnc(-c2ccc(Cl)cc2)o1 | – | inactive: -42.6%
48 | Cc1cc(C)c(S(=O)(=O)NCCc2ccncc2)c(C)c1 | – | inactive: -0.0341%
49 | O=C(Nc1ccn(Cc2c(F)c(F)c(F)c(F)c2F)n1)c1cccc(Cn2cc([N+](=O)[O-])cn2)c1 | inconclusive: 9.28 µM [inhibitor, partial curve, poor fit] | –
50 | COc1ccc(NS(=O)(=O)c2ccc(NC(=S)NC(=O)c3cccnc3)cc2)nn1 | – | inactive: 17.5%
51 | CCOC(=O)C1(Cc2ccccc2C(F)(F)F)CCN(C2CCCC2)CC1 | – | inactive: 10.8%
52 | Cc1nc2sc(C(c3ccco3)N3CCN(c4ccccc4)CC3)c(O)n2n1 (centres undefined) | – | inactive: -14.2%
53 | O=C1CN(C(=O)c2ccccc2F)C(c2ccc(F)cc2)c2cc(F)ccc2N1 (centres undefined) | – | inactive: 13%
54 | CCCCCCC(=O)Nc1ccc(C(=O)N/N=C/c2cccnc2)cc1 | inconclusive: 0.828 µM [inhibitor, full curve, poor fit] | –
55 | COc1ccc(C2(C(=O)Nc3ccc(OC)cc3OC)CCCC2)cc1 | inconclusive: 10.4 µM [inhibitor, partial curve] | –
56 | CCN(CC)Cc1c(O)ccc2c([N+](=O)[O-])c(C)n(-c3ccc(OC)cc3)c12 | inconclusive: 13.1 µM [inhibitor, single point] | –
57 | CC(=O)C(C)Oc1ccc(Cc2ncc(C(F)(F)F)cc2Cl)cc1 (centres undefined) | inconclusive: 11.7 µM [inhibitor, single point] | –
58 | O=C(O)c1cc(S(=O)(=O)NCc2ccco2)c(Cl)cc1Cl | inconclusive: 9.28 µM [inhibitor, single point] | –
59 | Cc1cc(NC(=O)CSc2nnc(-c3ccccc3)n2C)no1 | – | inactive: 91.1%
60 | Cc1ccc(CN2CCSc3ccc(C(=O)N4CCC5(CC4)OCCO5)cc32)cc1 | inconclusive: 6.57 µM [inhibitor, partial curve] | –
61 | CCC(=O)N(C1=C(NC)C(=O)c2ccccc2C1=O)C(C)C | inconclusive: 0.0928 µM [inhibitor, full curve, poor fit] | –
62 | COc1ccc(C(=O)Nc2ccc(C3(C#N)CCCC3)cc2)cc1OC | – | inactive: 45.8%
63 | NC(=O)CC[C@H](NC(=O)c1ccc(F)cc1)C(=O)OCC(=O)Nc1ccc(N2CCOCC2)cc1 | – | inactive: 2.14%
64 | CCOC(=O)CN1C(=O)/C(=C/c2ccccc2Br)Oc2ccccc21 | active: 2.08 µM | –
65 | CCCN(C(=O)c1ccco1)c1nnc(-c2ccccc2C)s1 | – | inactive: -8.13%
66 | COCc1cc(N2CCN(c3ccccc3F)CC2)nc(-c2ccccc2)n1 | – | inactive: 7.82%
67 | S=C(NCc1ccc(Cl)cc1)NC1CCCCC1 | – | inactive: 6.71%
68 | Nc1cc(=O)[nH]c(SCC(=O)Nc2ccc3c(c2)CCC3)n1 | inconclusive: 1.65 µM [inhibitor, full curve] | –
69 | COc1ccc(C(C)=O)cc1CC(C(=O)c1ccc(F)cc1)N(C)C (centres undefined) | active: 10.4 µM | –
